Patent publication US7795299B2, “Neo-tanshinlactone and analogs as potent and selective anti-breast cancer agents” (The University of North Carolina at Chapel Hill, priority 2004, dated 2010)
Where a name gives a salt, the structure may show the parent alone. The name of at least one read-out is uncertain.

Assays:
[1] = test system: MDA-MB-231 (estrogen receptor negative breast cancer); assay: In vitro anticancer assay (SRB), MDA-MB-231; assay type: cell-based, human; settings: concentration that reduces cell growth by 50%, 3 days in culture
Method: (§1) All stock cultures were grown in T-25 flasks. Freshly trypsinized cell suspensions were seeded in 96-well microtiter plates at densities of 1500-7500 cells per well with compounds added from DMSO-diluted stock. After 3 days in culture, attached cells were fixed with cold 50% trichloroacetic acid and then stained with 0.4% sulforhodamine B (SRB). The absorbency at 562 nm was measured using a microplate reader after solubilizing the bound dye.
as §1, with “Biological assay. All” for “All”, “cultures are” for “cultures were”, “96-well microtitre” for “96-well microtiter”

[2] = test system: ZR-75-1 (estrogen receptor positive breast cancer); assay: In vitro anticancer assay (SRB), ZR-75-1; assay type: cell-based, human; settings: concentration that reduces cell growth by 50%, 3 days in culture
Method: as §1
as §1, with “Biological assay. All” for “All”, “cultures are” for “cultures were”, “96-well microtitre” for “96-well microtiter”

CC/C(=C(\c1ccccc1)c1ccc(OCCN(C)C)cc1)c1ccccc1 [TAM, tamoxifen citrate, reference compound]
ED50, MDA-MB-231 (ER−) [1]: 8.5 µg/mL
ED50, ZR-75-1 (ER+) [2]: 3.6 µg/mL
